# Results of single-concentration screens

The chains behind the UniProt entries cited, without tags or fusion partners. Residues count along the entry.
UniProt A4I591, 1-473: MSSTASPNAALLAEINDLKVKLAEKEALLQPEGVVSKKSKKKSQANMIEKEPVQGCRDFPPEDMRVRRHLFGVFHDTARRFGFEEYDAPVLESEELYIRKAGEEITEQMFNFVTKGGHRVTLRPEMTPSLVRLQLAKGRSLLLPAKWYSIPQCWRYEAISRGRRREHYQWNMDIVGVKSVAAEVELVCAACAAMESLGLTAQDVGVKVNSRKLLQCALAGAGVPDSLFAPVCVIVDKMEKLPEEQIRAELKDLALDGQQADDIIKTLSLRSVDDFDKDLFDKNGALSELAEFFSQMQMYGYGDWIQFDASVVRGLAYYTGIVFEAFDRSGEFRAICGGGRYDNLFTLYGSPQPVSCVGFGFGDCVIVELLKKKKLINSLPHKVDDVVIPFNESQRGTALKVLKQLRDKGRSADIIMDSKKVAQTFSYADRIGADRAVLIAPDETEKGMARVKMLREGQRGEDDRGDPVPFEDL

The filed quantity is “Percent Effect” (%).
The record does not define 0% and 100%; most values in the screen are far below 50% and negative numbers occur (in some assays of this library far below -100).
Compounds were drawn at random from those tested, without regard to their results.

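Histidine-tRNA ligase, Leishmania infantum (UniProt A4I591). Enzyme assay of histidyl-tRNA synthetase; the read-out is not stated. Tested at 30 µM. The record gives no direction; compounds that gave an IC50 in retests scored well above the rest, so higher reads as stronger inhibition. The assay is labelled LdHisRS but filed under L. infantum. About 69,000 compounds were tested under these conditions; 0.6% (about 410) showed 50% or more at least once.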

| structure | Percent Effect |
|---|---|
| `O=C(CCCc1ncc(-c2ccccc2)o1)N1CCN(CCO)CC1` | -23.6 |
| `Cc1ccccc1OCC1CCCN(C(=O)CNC(=O)N(C)C)C1` (stereo unspecified) | 22.37 |
| `c1ccc(Cn2cccn2)c(CNCc2cnc(N3CCCC3)nc2)c1` | 27.71 |
| `CN1N=C(C(=O)N2CCCC(CCc3cccc(F)c3)C2)CCC1=O` (stereo unspecified) | 14.4 |
| `O=C(Cc1cccc(F)c1)N1CCCCC1c1ccn2ccnc2n1` (stereo unspecified) | -5.556 |
| `COCCN(Cc1ccc(F)cc1Cl)C(=O)c1cccc[n+]1[O-]` | 20.19 |
| `CCCc1nc(CN2CCOC(Cn3cncn3)C2)cs1` (stereo unspecified) | 11.61 |
| `Cc1ncsc1CCC(=O)NCc1cc2n(n1)CCN(C(=O)N(C)C)C2` | 14.42 |
| `O=C(c1ccco1)N1CC2(CCNCC2)c2cc(Cl)ccc21` | 4.587 |
| `CCSc1ccccc1C(=O)NCCn1nc(C(F)(F)F)n(C)c1=O` | 1.653 |
| `CCC(CO)N(Cc1ccccc1C)Cc1ccccc1C(=O)O` (stereo unspecified) | 5.479 |
| `CCC(C)S(=O)(=O)N(Cc1ccco1)Cc1ccccc1O` (stereo unspecified) | 21.43 |
| `CCN1CCc2c(cccc2NC(=O)N(C)C2CCSC2)C1` (stereo unspecified) | 13.16 |
| `COCCc1noc(-c2cc(Cl)c3c(c2)OCCCO3)n1` | 10.84 |
| `O=C(c1ccc2[nH]nnc2c1)N1CC[C@H](O)[C@]2(CCCO2)C1` | 14.29 |
| `CCCOCCOC(=O)c1ccc2c(c1)[nH]c(=O)n2C` | 14.58 |
| `Cc1cc(C(=O)Nc2ccc(CN3CCOCC3)cn2)n(C)n1` | 9.091 |
| `Cc1cnc(CCNC(=O)C2CN(C(=O)Cc3ccc(F)cc3)C2)s1` | 7.246 |
| `COCCn1cnc2c(F)cc(Br)cc2c1=O` | 15.96 |
| `Cc1cccc2c1cnn2CCC(=O)NCC(=O)N(C)C` | 9.709 |
| `O=C(c1cnccn1)N1CC2(CCN(Cc3ccsc3)C2)C1` | 5.556 |
| `O=C(CC1CCC2(CC1)CCN(Cc1ccncc1)CC2)N1CCCC1` | 5.556 |
| `CCc1csc(C2CCCN(C(=O)CCn3cc(C)cn3)C2)n1` (stereo unspecified) | 11.32 |
| `CCOC(=O)N1CCN(C(=O)c2sc(-c3ccccc3F)nc2C)CC1` | 17.14 |
| `O=C(NCc1cnn(-c2ccc(F)cc2F)c1)C1CCCO1` (stereo unspecified) | 8.219 |
| `CS(=O)(=O)CCCN(CCc1cccc(F)c1)C1CC1` | 12.24 |
| `CO[C@H]1CN(C(=O)OC(C)(C)C)CC1NCc1ccoc1` (stereo partly specified) | 7.895 |
| `CN(C)[C@@H]1CN(C(=O)c2ccc(C#N)cc2)[C@@H]2CCCO[C@H]12` | 13.68 |
| `c1cc2c(cc1Cn1cc(C3CCOC3)nn1)OCO2` (stereo unspecified) | 10.2 |
| `COc1ccc(CC(=O)N2CC[C@@H](OC)[C@@H]2Cc2cccnc2)cc1` | 1.923 |
| `Cc1[nH]nc(CCC(=O)N2CCOC(CCc3ccccc3)C2)c1C` (stereo unspecified) | 28.95 |
| `CNC(=O)C1CN(Cc2ccc(C#N)cc2F)c2ccccc2O1` (stereo unspecified) | 17.24 |
| `CC(C)(C)OC(=O)N1CC(CC(=O)NCc2ccnc(C3CC3)c2)C1` | 14.4 |
| `CC(C)N1CC[C@@](C)(O)[C@H](n2ccc(=O)[nH]c2=O)C1` | 13.04 |
| `Cc1nc(N2CCN(C)CC2)ncc1C(=O)N1CCCCCC1` | 6.849 |
| `OCc1cc2ccccc2nc1NCC1CCN(CC(F)(F)F)C1` (stereo unspecified) | 17.02 |
| `CC(=O)N1CCO[C@@H]2CN(Cc3ccccc3Cl)C[C@@H]2C1` | 11.71 |
| `COCCCNc1ncnc2c1CCN(C(=O)CC1C=CCC1)CC2` (stereo unspecified) | 5.31 |
| `CC(C)Cn1ccnc1CNC(=O)NC(C)(C)c1nccs1` | 15.49 |
| `Cn1ccnc1CN1CCCN(C(=O)c2ccc3cc[nH]c3c2)CC1` | 8.036 |
| `O=C(NCCC1COc2ccccc2O1)c1ccc(-c2cn[nH]c2)nc1` (stereo unspecified) | 13.11 |
| `CN1CCCC1CNC(=O)CCOc1ccc(Br)cc1` (stereo unspecified) | 21.43 |
| `COc1cc(CN(C)C(=O)NCCC(=O)NC2CCCC2)ccc1SC` | 24.24 |
| `CC(=O)Nc1ccc(Cl)c(C(=O)N(C)C(C)c2ccon2)c1` (stereo unspecified) | 12.82 |
| `CC(C)Cn1ncc2cc(C(=O)N(C)Cc3cccc(O)c3)cnc21` | 22.22 |
| `NC(=O)C(c1ccc(F)cc1)N1CCN(CCO)CC1` (stereo unspecified) | 7.143 |
| `Cc1cnn(C2CN(Cc3noc(C4CC4)n3)C2)c1` | 27.4 |
| `CNC(=O)[C@@H]1CC[C@@H]2[C@@H](CCN2Cc2ccccc2F)O1` | 2.632 |
| `CN(C)C(=O)CN1CCOCC2(CCN(c3ncc(F)cn3)CC2)C1` | 6.306 |
| `Cc1noc(-c2ccc(N(C)Cc3nccs3)nc2)n1` | 3.922 |
| `O=C(Nc1ccccc1)C1=NOC2(CCCN(C(=O)N3CCCC3)C2)C1` (stereo unspecified) | 20.83 |
| `O=C(CCc1cccs1)N1CCCC(N2CCNC2=O)C1` (stereo unspecified) | 2.655 |
| `Cc1noc(C)c1CN(C)CC(=O)N1CCc2sccc2C1` | 16.07 |
| `Cc1nc2c(c(=O)[nH]1)CN(Cc1ccc3c(c1)CCCN3C)CC2` | 8.054 |
| `C/C(=C\c1ccco1)CN(C)C(C)Cc1cc(C)ccn1` (stereo unspecified) | 25.37 |
| `O=C(NCCc1noc(C2CCCO2)n1)c1cn2ccsc2n1` (stereo unspecified) | 13.11 |
| `O=C1CN(C(=O)C2CN(c3cccc(F)c3)CCO2)CCN1` (stereo unspecified) | 5.797 |
| `CSc1ccc(C(CNC(C)=O)N2CCc3sccc3C2)cc1` (stereo unspecified) | 13.7 |
| `NC(=O)c1c[nH]nc1NC(=O)c1ccc(Cl)cc1` | 14.43 |
| `Cc1ccc(NC2CCN(C(=O)c3cc4c(s3)CCC4)CC2)nn1` | 22.41 |
| `Cc1noc([C@@H]2CC[C@@H]3[C@@H](CCN3S(=O)(=O)c3ccccc3)O2)n1` | 23.08 |
| `CN1C(=O)C[C@@H]2[C@@H]1CCN2S(=O)(=O)Cc1ccccc1` | -20.95 |
| `Cc1cc(O)cc(=O)n1CCCC(=O)Nc1n[nH]c2cc(Br)ccc12` | 15.22 |
| `NC(=O)c1csc(N2CCCC(c3nc4ccccc4[nH]3)C2)n1` (stereo unspecified) | 6.612 |
| `Cc1cc(C)c(CNC(=O)NC2COc3ccccc3C2)c(=O)[nH]1` (stereo unspecified) | 9.91 |
| `CC(C)(C)c1ncc(C(=O)NC(C(N)=O)c2ccccc2)s1` (stereo unspecified) | -2.679 |
| `COc1cccc(CNc2cc(N3CCCC3CO)ncn2)n1` (stereo unspecified) | 10.71 |
| `O=C(O)CN(C(=O)c1ccccc1)[C@H]1C[C@H]2CCOC[C@H]2C1` | 0 |
| `CS(=O)(=O)N1CCOC2(CCN(c3nccs3)CC2)c2ccccc21` | 10.53 |
| `COc1ccc(C(=O)COc2coc(CN3CCCCC3)cc2=O)cc1` | 18.42 |
| `COc1ccc(CNCC(C)Oc2ccccn2)cc1Cl` (stereo unspecified) | 5.263 |
| `CCOC(=O)[C@@H]1[C@@H](c2ccccc2)CN2CCNC[C@H]12` | 12.24 |
| `Cc1ccc(OCC2CCCN(C(=O)CN3CCOCC3)C2)cc1` (stereo unspecified) | 23.02 |

The values are deposited in ChEMBL (CHEMBL3988442, “University of Dundee, Small-Polar-MMV Screening Library” (2021)).